Data taken from PubChem BioAssay AID504444 (National Center for Advancing Translational Sciences (NCATS), 2011).
The campaign covered roughly 360,000 compounds. About 7,500 (2.1%) were called active. Inconclusive means that the source gave no clear call. Such entries were picked first, then a sample of the others. The call rests on the fitted dose curve; in most records, active means well fitted inhibition curve with a large enough effect; inconclusive means small, poorly fitted or top-dose-only effect, or effect the other way; inactive means flat fitted curve, though single readings scatter. A potency beside an inconclusive call is a rough fit, not a confirmed value.

assay: Nrf2 qHTS screen for inhibitors; conditions: A549 ARE-Fluc reporter, luciferase luminescence, 18-24 h; series mostly up to 46 µM; further: nearly all actives have a fitted effect of over 60% in size
Outline: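 A549 ARE_Fluc cells (5000/well, 5% FBS OPTI-MEM) pre-incubated 2 h, then treated with compounds 18-24 h at 37C/5% CO2 in concentration-response. CellTiter-Fluor viability read first; BugLite luciferase luminescence after 15 min at room temperature gives Nrf2 activity.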
Potency means the concentration at half of the fitted maximal effect.

SMILES	Potency
COc1ccc(CCNc2oc(COc3ccc(Cl)cc3)nc2C#N)cc1OC	inconclusive: 18.4 µM [falling, partial curve, poor fit]
Clc1ccc2c(N3CCOCC3)ccnc2c1	inconclusive: 11.6 µM [falling, partial curve]
CC(=O)/C(C(=N)N1CCN(Cc2ccccc2)CC1)=C(\C)O	inconclusive: 5.8 µM [activator, partial curve, poor fit]
CCOC(=O)c1ccc(NC(=O)C2CCCN(c3ncnc4onc(C)c34)C2)cc1 (stereo not drawn)	inconclusive: 23.1 µM [activator, single point]
Cc1ccc(C(=O)c2sc(Nc3ccccc3)c(C#N)c2N)cc1	inconclusive: 29.1 µM [falling, single point]
CC(C)(C)C1=CC(=O)C(=O)C(C(C)(C)C)=C1	inconclusive: 23.1 µM [falling, single point]
COc1ccccc1N1CCN(CCCNC(=O)Cn2ncc3c([nH]c4ccccc43)c2=O)CC1	inconclusive: 29.1 µM [activator, single point]
CSc1ccc(S(=O)(=O)N2CCC(C(=O)N3CCc4ccccc4C3)CC2)cc1	inconclusive: 16.4 µM [falling, single point]
CC[C@@H]1C(c2ccccc2)=NN(c2ccccc2)[C@H]1C(=O)N1CCOC1=O	inactive
CCOc1cc(/C=C(/C#N)c2nc3ccccc3[nH]2)ccc1OCc1ccc(C(=O)O)o1	inconclusive: 29.1 µM [activator, single point]
O=C(c1ccc(Cl)c(S(=O)(=O)N2CCCCC2)c1)N1CCN(Cc2ccccc2)CC1	inconclusive: 20.6 µM [falling, single point]
COc1ccccc1CNC(=O)C1CCN(S(=O)(=O)c2cccc([N+](=O)[O-])c2)CC1	inconclusive: 1.46 µM [falling, full curve, poor fit]
COc1c(C)cc(Br)cc1C(=O)Nc1ccc(Cc2ccncc2)cc1	inconclusive: 20.6 µM [falling, single point]
NCC(=O)c1cccc2ccc[n+]([O-])c12	inconclusive: 1.03 µM [falling, full curve]
NC(=O)NCc1ccc(Cl)cc1	inconclusive: 36.6 µM [falling, partial curve, poor fit]
CCN(Cc1ccccc1)S(=O)(=O)c1ccc(C(=O)Nc2nnc(C)o2)cc1	active: 13 µM
O=C(NCC(c1cccs1)N1CCOCC1)c1ccc(OCc2ccccc2)cc1 (stereo not drawn)	inconclusive: 29.1 µM [falling, single point]
COc1cccc(NC(=O)CSc2nc3c(c(=O)n2C)SC(C)C3)c1 (stereo not drawn)	inconclusive: 29.1 µM [falling, single point]
CCC(=O)N1CCc2cc(S(=O)(=O)NC(CC(C)C)C(=O)Nc3ccc(CC)cc3)ccc21 (stereo not drawn)	inconclusive: 29.1 µM [activator, single point]
CCc1nc(N)c(C#N)c(-c2ccc(F)cc2)c1C	inconclusive: 0.0052 µM [falling, full curve, poor fit]
CCOc1ccc(S(=O)(=O)Nc2cccc(C(=O)NCC(C)(C)N3CCOCC3)c2)cc1	inconclusive: 14.6 µM [falling, partial curve, poor fit]

SMILES	Potency
Cc1ccc(Nc2n[nH]c(C)c2[N+](=O)[O-])cc1	inconclusive: 16.4 µM [activator, partial curve, poor fit]
COc1ccc(NC(=O)CSc2ccc3c(c2)OCCO3)cc1	inactive
CCn1cc(C(=O)NCC2CCCO2)c(=O)c2cc(S(=O)(=O)N(C)C3CCCCC3)ccc21 (stereo not drawn)	inconclusive: 20.6 µM [falling, partial curve, poor fit]
CCc1cccc(C)c1NC(=O)c1cnn(-c2ccc(F)cc2)c1-n1cccc1	inconclusive: 0.082 µM [activator, full curve, poor fit]
C/C=C1\COC(C(=O)NCc2ccncc2)(C(F)(F)F)C=C1C=C1CCCCC1 (stereo not drawn)	inconclusive: 18.4 µM [falling, single point]
O=C(COC(=O)c1ccc(F)cc1Cl)NC(=O)NC1CCCC1	inconclusive: 3.66 µM [falling, partial curve]
CCc1ccc(NC(=O)c2ccc(F)c(S(=O)(=O)NCC3COc4ccccc4O3)c2)cc1 (stereo not drawn)	inconclusive: 29.1 µM [falling, single point]
CSc1nn(Cc2cccc(F)c2)c(N(C(C)=O)C(C)=O)c1S(=O)(=O)c1ccccc1	inactive
CCOc1ccc(C(=O)CSCCC(=O)O)cc1	inconclusive: 23.1 µM [falling, partial curve, poor fit]
CC1=C(C)/C(=N\OS(=O)(=O)c2ccc(C)cc2)C=CC1=O	inactive
COc1ccccc1NC(=O)Cc1csc(NC(=S)Nc2ccc(C)cc2)n1	inconclusive: 18.4 µM [falling, single point]
CC1(C)C(C=C(Cl)Cl)C1C(=O)N(Cc1ccc(Cl)cc1)C1CCS(=O)(=O)C1 (stereo not drawn)	inconclusive: 29.1 µM [falling, single point]
COc1cc(C2Nc3ccccc3C(=O)N2Cc2ccccc2)ccc1OCc1ccccc1 (stereo not drawn)	inconclusive: 25.9 µM [falling, single point]
S=C(NCCCc1cnc[nH]1)NCCCN(Cc1ccc(Cl)cc1)c1cc(-c2ccccc2)ccn1	inactive
COC(=O)C1=C(C(=O)OC)[C@@H]2N(C)c3ccccc3[C@@]23C[C@@H](C(=O)OC)N(C(=O)c2cc(C)oc2C)C3=N1	active: 18.4 µM
COc1ccccc1/C=C/C(=O)N1CCc2cc(OC)c(OC)cc2C1C (stereo not drawn)	inconclusive: 5.8 µM [falling, full curve]
c1ccc2c(-c3cncc4ccccc34)cncc2c1	inconclusive: 25.9 µM [falling, partial curve, poor fit]
Cn1c2ccccc2c2ncn(CCC3=CCCCC3)c(=O)c21	inconclusive: 18.4 µM [activator, single point]
CCOc1ccc(N=Nc2ccc(O)c3ncccc23)cc1	inconclusive: 23.1 µM [activator, single point]
O=C(C1CCCO1)N1CCN(S(=O)(=O)c2cc(C(F)(F)F)ccc2Cl)CC1 (stereo not drawn)	inactive
COc1cc(/C=C/C(=O)O)cc(S(=O)(=O)N(C)CCO)c1OC	inconclusive: 6.51 µM [activator, single point]

2 compounds picked at random from the list so far, as already listed:
SMILES	Potency
S=C(NCCCc1cnc[nH]1)NCCCN(Cc1ccc(Cl)cc1)c1cc(-c2ccccc2)ccn1	inactive
CCc1cccc(C)c1NC(=O)c1cnn(-c2ccc(F)cc2)c1-n1cccc1	inconclusive: 0.082 µM [activator, full curve, poor fit]

(listing goes on)

SMILES	Potency
CCCCC(=O)Nc1cnc(NC(=O)c2ccco2)cc1C	inconclusive: 11.6 µM [activator, partial curve]
Cc1ccc(NC(=O)Nc2cccs2)cc1	inconclusive: 7.31 µM [activator, partial curve, poor fit]
Cc1cccc(N2CCN(C(=O)CSc3nc4ccccc4nc3N3CC(C)OC(C)C3)CC2)c1C (stereo not drawn)	inconclusive: 29.1 µM [falling, single point]
CCC(=O)c1cc(F)c(N2CCN(C(=O)Cc3ccccc3)CC2)cc1C	inconclusive: 18.4 µM [falling, partial curve, poor fit]
c1cncc(-c2nc3cc4ccccc4cc3[nH]2)c1	inconclusive: 23.1 µM [activator, partial curve]
Cc1cc(C)c(NC(=O)CSc2nc3ccc(N4C(=O)c5ccccc5C4=O)cc3s2)c(C)c1	inconclusive: 32.6 µM [activator, partial curve, poor fit]
CCn1c2ccccc2c2cc(NC(=O)COC(=O)C3CCC(=O)N3)ccc21 (stereo not drawn)	inconclusive: 14.6 µM [falling, partial curve, poor fit]
Cc1ccc2oc(=O)c(/C=C(\O)c3cccs3)nc2c1	inconclusive: 4.61 µM [activator, partial curve]
COC(=O)c1sc(Nc2ccccc2)nc1C	inconclusive: 3.26 µM [activator, full curve]
O=C(CCN1C(=O)c2cccc3cccc(c23)C1=O)N1CCOCC1	inconclusive: 8.2 µM [activator, partial curve]
O=S(=O)(Nc1ccc2oc(-c3ccccc3)nc2c1)c1ccccc1	inconclusive: 4.11 µM [falling, full curve, poor fit]
COc1ccccc1NC(=O)C(OC(=O)CNC(=O)c1ccccc1)c1ccccc1 (stereo not drawn)	inactive
Cn1c(=O)cc(SCC(=O)Nc2cccnc2)c2ccccc21	inconclusive: 11.6 µM [falling, partial curve]
CCOc1ccccc1C(=O)Nc1ccc(S(=O)(=O)N2CCOCC2)cc1	inconclusive: 10.3 µM [falling, partial curve, poor fit]
COc1ccc(-n2nc3c(N4CCC(C(=O)NCc5cccc(C)c5)CC4)nnc(C)c3c2C)cc1	inconclusive: 6.51 µM [falling, single point]
Cc1noc(C)c1C(=O)N1CCN(c2ccc(OCc3ccccc3)cc2)CC1	active: 20.6 µM
COc1cc2ccccc2cc1C(=O)Nc1cc(C)ccn1	inconclusive: 7.31 µM [activator, partial curve, poor fit]
CC1(c2ccccc2)O[C@@H]2C[C@H]3[C@@H]4CCC5=CC(=O)C=C[C@]5(C)[C@@]4(F)[C@@H](O)C[C@]3(C)[C@]2(C(=O)CO)O1 (stereo partly drawn)	active: 0.0259 µM
CCN(CC)S(=O)(=O)c1ccc(/C=C/C(=O)Nc2ccc(N3CCOCC3)cc2)cc1	active: 16.4 µM
O=C(CCNC(=O)c1ccccc1Cl)Nc1cc(C(F)(F)F)ccc1Cl	inconclusive: 6.51 µM [falling, partial curve]
CCC(Sc1nnc(C)s1)C(=O)Nc1nccs1 (stereo not drawn)	inactive
